Reference: US20210285933A1, “HIGH THROUGHPUT DRUG SCREENING OF CANCER STEM CELLS” (UNIVERSITY OF WASHINGTON, priority 2018, published 2021)
Entries after “also recorded” stand apart in the source; their conditions may differ. At least one compound was matched to its structure with a doubt left.

What was measured:
[1] = tested on: AML blasts vs. leukemia stem cells (LSCs); assay: Drug specificity: group comparison of AUCs, blasts vs. LSCs across patient samples; assay type: cell-based, human; settings: aggregate viability data of patient samples; pairwise p-value<0.1
Procedure: (§1) After overnight incubation on matrix protein coated 384 well plates, drugs were added to each well using a CyBio Well Vario liquid handler (Amalytik Jena). The cell populations were analyzed for survival after a 72-hour exposure to 8 customized drug concentrations (within the range of 5 pM to 100 microM) of each drug spanning 4 logs. Post exposure viability was measured using CellTiter Glo luminescent reagent (Promega, Madison, Wis.) per manufacturer protocol, then the plates were analyzed with the Envision Multi-label plate reader (Perkin Elmer, Waltham, Mass.). XLFit software (IDBS, Guildford, Surrey, United Kingdom) was used to analyze the data and generate dose response curves based on standard 4-parameter logistic fit. For each plate, data were normalized to DMSO 100% viability and blank controls.
Area under the curve (AUC) was calculated for each dose response curve. For the 4 patient samples, two-sample two-tailed t-tests were used for group comparisons of AUC values to determine drug specificity and efficacy.
Drug specificity was defined by group comparisons between AUCs for each drug and cell type across patient samples. […] Group comparisons for categorical variable were completed using Fisher's exact test.

[2] = tested on: leukemia stem cells (LSCs) CD34+CD38low or negCD123+ from AML patient samples; assay: High throughput functional drug screen (72-hour exposure, CellTiter Glo viability) on FACS sorted LSCs; assay type: cell-based, human; settings: FIG. 1C, patient sample on the right
Procedure: Isolation of blasts and FACS isolation of LSCs: CD34+ blasts were enriched to >90% using immunomagnetic beads (QuadroMACS). Fluorescence activated cell sorting was performed in a biosafety cabinet enclosed FACS-Aria II (Becton-Dickinson; San Jose, Calif.) housed in the University of Washington Core Cell Analysis Facility where voltage was standardized and calibration was performed daily. Mononuclear cells were stained with allophycocyanin H7 (APC-H7) conjugated anti-human CD45, allophycocyanin (APC) conjugated anti-human CD34, phycoerythrin-Cy7 (PE-Cy7) conjugated anti-human CD38 and phycoerythrin (PE) conjugated anti-human CD123 (all from BD Biosciences Pharmingen, San Jose, Calif.). […]
as §1, with “XLFit software (IDBS, Guildford, Surrey, United Kingdom) was used to analyze the data and generate dose response curves based on standard 4-parameter logistic fit. For each plate, data were normalized to DMSO 100% viability and blank controls.” left out
Area under the curve (AUC) was calculated for each dose response curve. […]

AML = settings: literature; cited from earlier work

SMILES: Nc1nc(F)nc2c1ncn2[C@@H]1O[C@H](CO)[C@@H](O)[C@@H]1O [Fludarabine]
- Drug specificity (blast specific: AUCstem mean>AUCblast mean; LSC specific: AUCstem mean<AUCblast mean) [1]: blast cell specific; also recorded: blast cell-specific

SMILES: CCN(CC)CCNC(=O)c1c(C)[nH]c(/C=C2\C(=O)Nc3ccc(F)cc32)c1C [Sunitinib]
- LSC drug response in dose response curves [2]: sensitive

SMILES: Nc1ncn([C@H]2C[C@H](O)[C@@H](CO)O2)c(=O)n1 [decitabine]
- Drug specificity (blast specific: AUCstem mean>AUCblast mean; LSC specific: AUCstem mean<AUCblast mean) [1]: non-specific

SMILES: CCCC(CCC)C(=O)O [valproate]
- clinical effect in AML patients (AML): selectively decreases the LSC fraction
